Results are given in words; binding and its absence hold for the method and conditions named. Some entries that bind do so weakly or less than the wild type.

Amino acid sequences for entries named in this document (tags omitted). A change or cut given only in a name is not applied to a line headed by its entry.
UniProt P49767: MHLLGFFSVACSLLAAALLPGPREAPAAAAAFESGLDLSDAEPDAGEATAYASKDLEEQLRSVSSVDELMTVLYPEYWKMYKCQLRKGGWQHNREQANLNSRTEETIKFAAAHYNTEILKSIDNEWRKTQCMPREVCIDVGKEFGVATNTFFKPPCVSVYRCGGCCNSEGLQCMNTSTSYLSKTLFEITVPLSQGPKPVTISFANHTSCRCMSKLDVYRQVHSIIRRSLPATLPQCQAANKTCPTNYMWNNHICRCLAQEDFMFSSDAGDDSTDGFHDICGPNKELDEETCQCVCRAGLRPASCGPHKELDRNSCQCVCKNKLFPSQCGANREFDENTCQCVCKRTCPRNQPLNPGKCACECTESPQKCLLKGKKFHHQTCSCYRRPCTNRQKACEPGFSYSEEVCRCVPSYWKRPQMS

B1: 20G02 scFv (scFv)
scFv: EVQLLESGGGLVQPGGSLRLSCAASGFTFSSYAMSWARQAPGKGLEWVSAISGSGGSTYYADSVKGRFTISRDNSKNTLYLQMNSLRAEDTAVYYCARFSRNSWENWGRGTLVTVSSGGGGSGGGGSGGGGSAQAVVIQEPSFSVSPGGTVTLTCGLSSGSVSTSNYPSWHRQTPGQAPRTLIYNTNTRSSGVPDRFSGSILGNKAALTITGAQADDESDYYCALHMRSGLSVFGGGTKVTVLG
B2: 32G10X scFv (scFv)
scFv: QMQLVQSGAEVKKPGSSVKVSCKASGGIFSSYAISWVRQAPGQGLEWMGGIIPRFGTANYAQKFEGRVTITADESTSTAYMELSSLRSEDTAVYYCARDTVKSSGSYPYYNYYYMDVWGQGTLVTVSSSYVLTQPPSVSVSPGQTASITCSGDKLGDKYASWYQQKPGQSPVLVIHQDNKRPSGIPERFSGSNSGNTATLTISGTQAMDEADYYCQAWDSSLGVFGTGTKVTVLG
B3: 20G11 scFv (scFv)
scFv: EVQLLESGGGLVQPGGSLRLSCAASGFTFSSYAMSWARQAPGKGLEWVSAISGSGGSTYYADSVKGRFTISRDNSKNTLYLQMNSLRAEDTAVYYCARWVGGNEGSWSDWGQGTLVTVSSGGGGSGGGGSGGGGSALNFMLTQPHSVSESPGKTVTISCTRSGGSIASNYVQWYQQRPGSVPTTLIYEDHKRPSGVPDRFSGSIDSSSNSASLTISGLKTEDEADYYCQSYDTSAWVFGGGTKLTVLG
B4: 72D09 scFv (scFv)
scFv: EVQLLKSGGGLVQPGGSLRLSCAASGFTFSSYAMSWVRQAPGKGLEWVSAISGSGGSTYYADSVKGRFTISRDNSKNTLYLQMNSLRAEDTAVYYCARDLSAGFFDPWGRGTMVTVSSGGGGSGGGGSGGGGSAQSVLTQPPSSSGTPGQRVTISCSGSSSNIGRHTVSWYQQVPGTAPKLLIYSDDHRPSGVPDRFSASKSGTSASLTITGLQSEDEADYYCAAWDDSLNGPWVFGGGTKLTVLG
B5: 16C10 scFv (scFv)
scFv: QMQLVQSGAEVKKPGSSVKVSCKASGGIFSSYAISWVRQAPGQGLEWMGGIIPRFGTANYAQKFEGRVTITADESTSTAYMELSSLRSEDTAVYYCARDQVRASGSYPYYYYYYMDVWGQGTLVTVSSGGGGSGGGGSGGGGSALSYVLTQPPSMSVSPGQTARITCSGDKLGDKYASWYQQKPGQSPVLVIYQDSERPSGIPERFSGSNSGNTATLTIRGTQPLDEADYYCQTWDTSTGVFGGGTQLTVLS
B6: 25A07 scFv (scFv)
scFv: EVQLLESGGGLVQPEGSLRLSCAASGFTFSSYAMSWVRQAPGKGLEWVSAISGSGGSTYYADSVKGRFTISRDNSKNTLYLQMNSLRAEDTAVYYCARDLSDSKFDPWGRGSMVTVSSGGGGSGGGGSGGGGSALSYELTQPPSSSGTPGQRVTISCSGSSSNIGRHTVSWYQQVPGTAPKLLIYSDDHRPSGVPDRFSASKSGTSASLTITGLQSEDEADYYCAAWDDSLNGPWVFGGGTKLTVLG
B7: 19B09 scFv (scFv)
scFv: QVQLQESGPGLVKPSQTLSLTCSVSGGSISSRGYYWSWIRQHPGKGLEWIGYIYHNGNTYYNPSLKSRITMSVDTSKNQFSLKLSSVTAADTAVYFCARDKVVTGISGGFDLWGRGTLVTVSSGGGGSGGGGSGGGGSAQAVLTQPSSLSGAPGQRVTISCTGSSSNIGAGYDVHWYQHLPGTAPKLLIYGNNNRPSGVPDRFSGSKSGTSASLTITGLQAEDEADYYCQSDDSLSDSVVFGGGTQLTVLS
B8: 16B06 scFv (scFv)
scFv: EVQLVETGGGFVRPGGSLRLSCAASGFTFSNYAMTWFRQAPGKGLEWVSDISGDGIGTYNADSVKGRFTISRDNSNSILYLQMNSLRAEDTAVYYCAKDRWYTSGWIFDYWGKGTLVTVSSGGGGSGGGGSGGGGSAQAVLTQPSSMSGAPGQRVTISCTGSSSNIGAGYDVHWYQQLPGTAPKLLIYANNNRPSGVPARFSGSKSGTSAYLAIAGLQAADESDYYCQSYDSYLGDSVFGGGTKLTV
B9: 69D09 scFv (scFv)
scFv: EVRLLESGGGLVQPGGSLRLSCAASGFTFRPRAMAWVRQAPGKGLEWVSSISAQGASAYYADSVKGRFTISRDNSKNTLYLQMNSLRAEDTAVYYCARDLSVSGFGPWGRGTMVAVSSGGGGPGGGGSGGGRSALSYELTQPPSSSGTPGQRVTISCSGSSSNIGRHTVSWYQQVPGTAPKLLIYSDDHRPSGVPDRFSASKSGTSASLTITGLQSEDEADYYCAAWDDSLNGPWVFGGGTKLTVLG

The assay addresses human vascular endothelial growth factor 2 (VEGF-2) (human) (UniProt P49767). The assay can be described thus: phage display selection; assay format not described.
Turning to B1, the binding result is “binds”.
With B2 the entry was “binds”; with B3, “binds”.
Take B4: the binding result is “binds”.
With B5 the entry was “binds”.
With B6 the entry was “binds”.
With B7 the entry was “binds”.
Consider B8, for which the binding result is reported as “binds”.
With B9 the entry was “binds”.

For the origin of these results see US20030175274A1.
